One may read the EC50 as the midpoint of the concentration-response curve.

The chains behind the UniProt entries cited, without tags or fusion partners. Residues count along the entry.
UniProt P24821, 23-2201: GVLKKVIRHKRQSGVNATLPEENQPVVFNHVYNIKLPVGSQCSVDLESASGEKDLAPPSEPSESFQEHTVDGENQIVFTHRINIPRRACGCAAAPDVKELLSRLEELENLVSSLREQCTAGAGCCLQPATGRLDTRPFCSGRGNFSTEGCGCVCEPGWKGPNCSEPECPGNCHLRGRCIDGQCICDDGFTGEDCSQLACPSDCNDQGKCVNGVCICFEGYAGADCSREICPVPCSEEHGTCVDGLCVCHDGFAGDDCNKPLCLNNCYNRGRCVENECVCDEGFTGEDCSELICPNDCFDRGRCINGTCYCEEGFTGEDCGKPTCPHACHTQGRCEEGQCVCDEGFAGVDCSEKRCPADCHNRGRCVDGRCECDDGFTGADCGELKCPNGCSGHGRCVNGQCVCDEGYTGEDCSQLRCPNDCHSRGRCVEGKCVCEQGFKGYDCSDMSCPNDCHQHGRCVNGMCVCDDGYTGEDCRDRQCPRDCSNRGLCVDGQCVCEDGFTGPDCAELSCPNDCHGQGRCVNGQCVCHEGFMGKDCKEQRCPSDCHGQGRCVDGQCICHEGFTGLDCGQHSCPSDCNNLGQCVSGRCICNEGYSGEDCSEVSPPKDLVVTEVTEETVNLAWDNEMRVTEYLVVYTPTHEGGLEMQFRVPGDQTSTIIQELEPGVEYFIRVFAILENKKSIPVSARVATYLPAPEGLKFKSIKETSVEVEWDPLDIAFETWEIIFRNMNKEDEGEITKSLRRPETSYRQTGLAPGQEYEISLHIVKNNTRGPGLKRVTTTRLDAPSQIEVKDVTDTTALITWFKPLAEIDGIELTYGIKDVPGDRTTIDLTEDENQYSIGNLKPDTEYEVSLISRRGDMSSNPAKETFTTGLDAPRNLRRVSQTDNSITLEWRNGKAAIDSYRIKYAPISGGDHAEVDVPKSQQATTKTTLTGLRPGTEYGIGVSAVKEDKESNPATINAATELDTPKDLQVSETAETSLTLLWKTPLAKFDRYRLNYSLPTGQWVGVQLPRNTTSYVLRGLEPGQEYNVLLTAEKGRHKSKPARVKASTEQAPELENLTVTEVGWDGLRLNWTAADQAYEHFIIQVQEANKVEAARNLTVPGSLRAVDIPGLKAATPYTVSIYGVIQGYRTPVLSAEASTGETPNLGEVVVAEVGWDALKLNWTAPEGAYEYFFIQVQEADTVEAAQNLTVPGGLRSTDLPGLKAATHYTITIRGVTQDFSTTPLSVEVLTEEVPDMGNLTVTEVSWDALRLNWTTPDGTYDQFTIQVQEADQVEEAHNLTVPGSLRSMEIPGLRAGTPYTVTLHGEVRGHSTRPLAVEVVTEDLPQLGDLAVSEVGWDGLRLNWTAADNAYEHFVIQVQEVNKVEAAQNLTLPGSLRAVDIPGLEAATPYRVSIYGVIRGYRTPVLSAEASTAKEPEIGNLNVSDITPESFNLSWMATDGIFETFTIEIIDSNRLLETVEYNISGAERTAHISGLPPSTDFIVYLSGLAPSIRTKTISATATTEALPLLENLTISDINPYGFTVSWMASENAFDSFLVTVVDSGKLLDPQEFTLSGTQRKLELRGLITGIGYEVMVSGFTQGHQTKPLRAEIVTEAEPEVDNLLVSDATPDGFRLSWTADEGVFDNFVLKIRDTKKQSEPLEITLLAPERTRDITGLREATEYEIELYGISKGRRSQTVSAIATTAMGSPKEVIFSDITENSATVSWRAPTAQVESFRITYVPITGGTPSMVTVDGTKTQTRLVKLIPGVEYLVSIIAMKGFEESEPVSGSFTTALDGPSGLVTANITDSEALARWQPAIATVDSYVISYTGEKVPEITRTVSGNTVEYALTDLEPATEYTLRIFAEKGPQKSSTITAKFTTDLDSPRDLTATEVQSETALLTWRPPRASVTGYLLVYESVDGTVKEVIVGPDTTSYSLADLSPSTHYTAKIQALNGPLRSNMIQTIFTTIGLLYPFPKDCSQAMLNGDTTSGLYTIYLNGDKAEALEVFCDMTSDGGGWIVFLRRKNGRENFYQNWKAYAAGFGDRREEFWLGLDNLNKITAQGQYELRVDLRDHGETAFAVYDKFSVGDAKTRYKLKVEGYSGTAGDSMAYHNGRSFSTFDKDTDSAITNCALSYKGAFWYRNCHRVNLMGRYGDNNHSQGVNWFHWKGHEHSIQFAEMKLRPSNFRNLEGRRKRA

For at least one entry, the source does not settle the construct or the ends of the probe.

Drawing on patent US20090068103, this text covers EC50 for two sequences.

The series addresses Tenascin-C (TN-C) (Homo sapiens) (UniProt P24821). Put plainly: competition with a labelled probe. Particulars: 5'-NH2-C6, 3'-3'-T cap, filter competition vs 1 nM 99mTc-TTA1-MAG2, 2 nM TN-C.

Consider “GGGAGGACGCGUCGCCGUAAUGGAUGUUUUGCUCCCUG [TTA1]”, for which the EC50 ((CH2CH2O)6 spacer between GGGAGGACG and CGUCGC, 2' sugar modifications not marked in printed sequence, TBSMC (20 mM Tris pH 7.4, 137 mM NaCl, 1 mM CaCl2, 1 mM MgCl2), 37 C) was found to be 6 nM. Under “mGmGmG mAmGG mAfCmG-(CH2CH2O)6-fCGfU fCGfC fCGfU mAmAfU mGmGmA fUmGfU fUfUfU mGfCfU fCfCfC UmG (m=2'-OMe, f=2'-F), spacer printed as (CH2CH2O)2 in claim 9, TBSMC pH 7.4, 1 mM CaCl2, 1 mM MgCl2, 37 C, variant of TTA1”, “GGGAGGACGCGUCGCCGUAAUGGAUGUUUUGCUCCCUG [TTA2]” returned a concentration giving a half-maximal response (EC50) of 31 nM.
